Measurements taken from publication doi:10.1101/2023.01.24.525215.

Target: T1, WRKY53 (Arabidopsis thaliana) (UniProt Q9SUP6)
T1 sequence (looked up): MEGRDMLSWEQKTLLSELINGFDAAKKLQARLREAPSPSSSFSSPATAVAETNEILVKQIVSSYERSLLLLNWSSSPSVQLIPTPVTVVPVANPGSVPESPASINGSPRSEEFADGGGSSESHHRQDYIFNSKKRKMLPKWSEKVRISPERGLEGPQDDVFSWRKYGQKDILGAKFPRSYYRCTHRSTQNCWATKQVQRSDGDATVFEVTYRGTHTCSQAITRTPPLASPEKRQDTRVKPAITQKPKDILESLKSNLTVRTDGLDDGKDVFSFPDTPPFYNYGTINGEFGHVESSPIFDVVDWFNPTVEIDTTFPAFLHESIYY
Assay: EMSA
Conditions: with CAM5; residues 1-324

“TTTATTTGAAAATTGACTGTAGATATAAAC (double strand) [PR1 w-box probe]”: binds more weakly.

“ATAATTATTCTTGACTGATGTATGCATATA (double strand) [PDF1.2 w-box probe]”: binds more weakly.

The exact form of at least one protein or probe is not confirmed. A weaker result is weaker than the reference pair of the same experiment. Protein sequences can lack the tags named with them.
